No constants are given. Whether binding was seen depends on the method and setting. For some assays here: Binding seen in cells or lysates may run through a third protein. Some entries that bind do so weakly or less than the wild type. Tags and fused reporters may be left off the sequences shown.
T1: CKRC3/TCU2 (Naa25, auxiliary subunit of Arabidopsis NatB), pGBKT7 fusion (Arabidopsis thaliana) (UniProt F4KEY9)
T1 sequence: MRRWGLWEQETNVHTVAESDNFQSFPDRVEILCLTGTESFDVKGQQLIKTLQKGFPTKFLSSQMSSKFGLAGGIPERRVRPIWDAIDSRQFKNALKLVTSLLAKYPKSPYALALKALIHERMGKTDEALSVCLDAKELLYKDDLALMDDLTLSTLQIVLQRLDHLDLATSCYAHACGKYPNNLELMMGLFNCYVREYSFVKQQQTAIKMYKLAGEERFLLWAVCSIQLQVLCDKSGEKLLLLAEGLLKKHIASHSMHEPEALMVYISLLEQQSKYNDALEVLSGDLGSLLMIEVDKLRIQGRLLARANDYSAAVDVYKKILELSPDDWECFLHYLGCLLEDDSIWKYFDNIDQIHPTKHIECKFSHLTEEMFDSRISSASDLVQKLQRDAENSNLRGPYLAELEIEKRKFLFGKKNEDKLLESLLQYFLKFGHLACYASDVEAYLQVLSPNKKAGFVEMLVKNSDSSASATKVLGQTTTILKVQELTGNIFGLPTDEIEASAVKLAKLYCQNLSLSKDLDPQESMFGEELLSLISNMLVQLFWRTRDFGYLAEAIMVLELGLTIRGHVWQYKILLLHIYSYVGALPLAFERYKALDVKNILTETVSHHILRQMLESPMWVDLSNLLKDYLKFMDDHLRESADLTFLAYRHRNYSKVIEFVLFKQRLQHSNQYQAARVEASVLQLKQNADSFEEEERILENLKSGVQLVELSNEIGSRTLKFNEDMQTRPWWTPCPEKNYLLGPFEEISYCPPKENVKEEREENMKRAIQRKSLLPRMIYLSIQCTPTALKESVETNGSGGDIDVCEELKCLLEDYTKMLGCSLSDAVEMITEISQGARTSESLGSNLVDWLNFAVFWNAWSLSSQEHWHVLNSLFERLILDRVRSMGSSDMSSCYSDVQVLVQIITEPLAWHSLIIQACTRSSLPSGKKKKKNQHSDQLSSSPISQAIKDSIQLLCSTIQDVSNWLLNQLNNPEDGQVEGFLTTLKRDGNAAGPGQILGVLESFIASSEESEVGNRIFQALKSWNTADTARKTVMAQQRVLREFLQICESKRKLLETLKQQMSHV

T2: Myc-tagged CKRC3/TCU2 expressed in N. benthamiana leaves (Arabidopsis thaliana) (UniProt F4KEY9)
T2 sequence: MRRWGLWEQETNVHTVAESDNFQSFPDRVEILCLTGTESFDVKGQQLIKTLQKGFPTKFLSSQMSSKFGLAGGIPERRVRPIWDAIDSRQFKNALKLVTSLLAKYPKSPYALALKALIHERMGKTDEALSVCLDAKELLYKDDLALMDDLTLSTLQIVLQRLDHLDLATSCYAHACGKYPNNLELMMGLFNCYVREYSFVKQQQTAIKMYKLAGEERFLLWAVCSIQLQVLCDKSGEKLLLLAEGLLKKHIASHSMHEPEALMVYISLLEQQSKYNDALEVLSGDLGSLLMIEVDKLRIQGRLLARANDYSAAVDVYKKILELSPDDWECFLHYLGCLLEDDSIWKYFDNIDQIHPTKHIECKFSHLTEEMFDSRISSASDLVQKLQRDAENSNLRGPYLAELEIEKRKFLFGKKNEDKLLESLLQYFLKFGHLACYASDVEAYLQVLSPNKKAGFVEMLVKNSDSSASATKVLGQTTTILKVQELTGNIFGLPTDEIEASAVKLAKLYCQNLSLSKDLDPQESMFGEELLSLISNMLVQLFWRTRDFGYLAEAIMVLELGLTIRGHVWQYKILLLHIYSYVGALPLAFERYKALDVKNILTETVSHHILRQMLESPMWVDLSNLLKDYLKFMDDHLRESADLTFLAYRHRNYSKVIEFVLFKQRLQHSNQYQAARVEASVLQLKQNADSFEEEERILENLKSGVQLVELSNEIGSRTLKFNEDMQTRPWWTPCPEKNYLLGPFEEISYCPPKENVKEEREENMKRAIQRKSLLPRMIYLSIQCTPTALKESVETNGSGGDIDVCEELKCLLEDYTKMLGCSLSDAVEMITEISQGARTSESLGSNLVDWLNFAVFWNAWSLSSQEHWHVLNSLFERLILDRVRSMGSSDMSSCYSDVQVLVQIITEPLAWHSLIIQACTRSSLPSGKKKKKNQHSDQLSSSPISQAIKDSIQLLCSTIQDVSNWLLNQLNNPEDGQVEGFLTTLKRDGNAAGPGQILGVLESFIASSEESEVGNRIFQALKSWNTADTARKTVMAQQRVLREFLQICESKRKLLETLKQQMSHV


Tests used:
[1] = target: T1, CKRC3/TCU2 (Naa25, auxiliary subunit of Arabidopsis NatB), pGBKT7 fusion (Arabidopsis thaliana); assay: two-hybrid; pGBKT7-CKRC3/TCU2 with pGADT7-NBC in yeast; growth on SD/-Leu/-Trp/-His/-Ade with or without X-alpha-Gal and AbA, 30 °C
[2] = target: T2, Myc-tagged CKRC3/TCU2 expressed in N. benthamiana leaves (Arabidopsis thaliana); assay: co-IP; Myc-tagged CKRC3/TCU2 and HA-tagged NBC transiently co-expressed in N. benthamiana leaves; anti-Myc or anti-HA antibody with protein G-Sepharose; IP buffer 50 mM Tris pH 7.5, 150 mM NaCl, 10% glycerol, 0.1% Nonidet P-40, 5 mM DTT; 4 °C

| binding [1] | binding [2] | Binder |
| --- | --- | --- |
| binds | – | NBC (Naa20, catalytic subunit of Arabidopsis NatB), pGADT7 fusion (protein, UniProt Q8LGI8 1-174) MTTIRRFSCNDLLRFTSVNLDHLTETFNMSFYMTYLARWPDYFHVAEGPGNRVMGYIMGKVEGQGESWHGHVTAVTVSPEYRRQQLAKKLMNLLEDISDKIDKAYFVDLFVRASNTPAIKMYEKLGYIIYRRVLRYYSGEEDGLDMRKALSRDVEKKSVIPLKRPITPDELEYD |
| – | binds | HA-tagged NBC expressed in N. benthamiana leaves (protein, UniProt Q8LGI8 1-174) MTTIRRFSCNDLLRFTSVNLDHLTETFNMSFYMTYLARWPDYFHVAEGPGNRVMGYIMGKVEGQGESWHGHVTAVTVSPEYRRQQLAKKLMNLLEDISDKIDKAYFVDLFVRASNTPAIKMYEKLGYIIYRRVLRYYSGEEDGLDMRKALSRDVEKKSVIPLKRPITPDELEYD |

Source: PMC9780221
